# Reference: patent publication US7824850B2, “Methods of protein destabilization and uses thereof” (Aurora Biosciences Corporation, priority 2000, dated 2010)
# By UniProt entry, the sequences of proteins in these tests, tags left out. Residues count along the entry.
# UniProt P62593, 24-286 limits assumed: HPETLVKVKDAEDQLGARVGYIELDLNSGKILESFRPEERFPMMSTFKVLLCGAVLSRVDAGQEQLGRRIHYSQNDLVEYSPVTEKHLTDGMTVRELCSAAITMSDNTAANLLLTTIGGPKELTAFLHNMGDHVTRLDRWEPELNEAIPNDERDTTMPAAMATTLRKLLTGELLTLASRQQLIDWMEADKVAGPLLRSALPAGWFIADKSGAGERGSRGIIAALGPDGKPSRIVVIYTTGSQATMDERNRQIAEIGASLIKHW
# For at least one compound, name, drawing or mass did not settle the structure.
# Target: T1, β-lactamase (Escherichia coli, UniProt P62593)
# T1 construct: wild-type (cleavable) ubiquitin (N, cleaved yes); expressed in transfected cells; host or cells: Jurkat
# Experiment: Control: β-lactamase activity in Jurkat cells expressing wild-type β-lactamase
# Type: cell-based
# Conditions: data not shown
structure (smiles),measurement,value
COC1=C2C[C@@H](C)C[C@H](OC)[C@H](O)[C@@H](C)/C=C(\C)[C@H](OC(N)=O)[C@@H](OC)/C=C\C=C(/C)C(=O)NC(=CC1=O)C2=O [geldanamycin],inhibition of β-lactamase activity (control),did not inhibit β-lactamase activity
